Results on 1 substance are retold here after PMC7205606, “Characterization of a toxin-antitoxin system in Mycobacterium tuberculosis suggests neutralization by phosphorylation as the antitoxicity mechanism” (Communications Biology, 2020).

For the assay, the target named is T1, TakA with C-terminal Myc-tag and C-terminal His-tag (TakA-Myc-His) (Mycobacterium tuberculosis H37Rv) (UniProt P96357).
T1 sequence: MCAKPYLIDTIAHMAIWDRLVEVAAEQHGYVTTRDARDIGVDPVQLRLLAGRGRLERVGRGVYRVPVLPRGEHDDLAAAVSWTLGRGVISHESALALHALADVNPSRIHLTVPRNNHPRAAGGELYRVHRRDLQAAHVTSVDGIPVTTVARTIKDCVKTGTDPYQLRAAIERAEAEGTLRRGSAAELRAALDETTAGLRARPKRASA
The assay is described as follows: co-IP.

These are yes or no findings as the source states them, for the method shown. Binding seen in cells or lysates may run through a third protein. Some results given as binding are weak or reduced against the parent protein; the word gives no strength. Tags and fused reporters may be left off the sequences shown.

Regarding “TglT with a C-terminal FLAG-tag (TglT-FLAG) (from UniProt P96356 1-293)”, the binding entry is on record as “binds”.
